PubChem BioAssay AID1159578, Peter MacCallum Cancer Centre | 2015
This is a random part of about 18,000 deposited reagents. Of all reagents, about 1,030 (5.7%) got an active call. 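Inactive calls also include pools with fewer than 3300 nuclei, whose migration was not assessed.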 Raw values vary from plate to plate and are shown uncorrected.

Aim: 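Genome-wide hunt for genes controlling movement of lymphatic endothelial cells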 (primary screen)
Cell system: human lymphatic endothelial cells
Reagent: siRNA pool against human genes, 40 nM
Duration: 48 h after transfection
Measurement: 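High-content imaging of dye-stained cells in a scratch assay measures filled wound area and nuclei per well; duplicate means given as ratio to mock and robust z-score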
Scale: migration robust z-score: higher = faster migration into the scratch; migration relative to mock: higher = more scratch area covered than mock; nuclei per well: higher = more cells in the well
Rule for the call: 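Pools averaging fewer than 3300 nuclei are never called; remaining pools count as changed when migration robust z lies outside -2 to 2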
Meaning of the calls: active = migration changed; inactive = no migration change, or too few cells

gene,migration robust z-score,migration class with cell-count check,migration relative to mock,"nuclei per well, duplicate mean",Outcome
ITPKB,-0.26,migration z between -2 and 2; enough cells,0.76,6611,inactive
DAOA,1.2,migration z between -2 and 2; enough cells,1.2,5882,inactive
GOLGA8G,0.56,migration z between -2 and 2; enough cells,1.03,7034,inactive
SYT9,-0.9,migration z between -2 and 2; enough cells,0.65,5006,inactive
FOXJ3,-0.2,migration z between -2 and 2; enough cells,0.76,5802,inactive
MACC1,0.28,migration z between -2 and 2; enough cells,0.96,6202,inactive
FRMPD4,0.98,migration z between -2 and 2; enough cells,1.14,5416,inactive
BCAS2,1.35,migration z between -2 and 2; enough cells,1.06,7460,inactive
SSX4,0.68,migration z between -2 and 2; enough cells,0.94,5716,inactive
ANKRD22,0.41,migration z between -2 and 2; enough cells,0.99,6020,inactive
TASOR,0.81,migration z between -2 and 2; enough cells,1.1,6840,inactive
TP73,-0.08,migration z between -2 and 2; enough cells,0.79,4121,inactive
TANGO2,-4.13,under 3300 nuclei; migration not judged,-0.16,1326,inactive
MOG,-0.73,migration z between -2 and 2; enough cells,0.7,4898,inactive
RNF43,-1.6,migration z between -2 and 2; enough cells,0.5,5060,inactive
DENND2B,-0.76,migration z between -2 and 2; enough cells,0.66,5246,inactive
TSPYL6,0.99,migration z between -2 and 2; enough cells,1.14,6370,inactive
PKD1L1,-0.64,migration z between -2 and 2; enough cells,0.72,6166,inactive
PSMB4,-0.73,migration z between -2 and 2; enough cells,0.66,5448,inactive
TXNDC15,0.16,migration z between -2 and 2; enough cells,0.84,5000,inactive
OTUD5,-0.36,migration z between -2 and 2; enough cells,0.79,5793,inactive
ZBED10P,0.29,migration z between -2 and 2; enough cells,0.96,6234,inactive
CYP7B1,1.32,migration z between -2 and 2; enough cells,1.06,5704,inactive

The list goes on; the last 2 above are carried over.
gene,migration robust z-score,migration class with cell-count check,migration relative to mock,"nuclei per well, duplicate mean",Outcome
ZBED10P,0.29,migration z between -2 and 2; enough cells,0.96,6234,inactive
CYP7B1,1.32,migration z between -2 and 2; enough cells,1.06,5704,inactive
SLC38A7,-1.03,migration z between -2 and 2; enough cells,0.6,5232,inactive
PCBP1,-0.36,migration z between -2 and 2; enough cells,0.74,4866,inactive
MAPK15,-0.86,migration z between -2 and 2; enough cells,0.64,4122,inactive
KBTBD4,-0.36,migration z between -2 and 2; enough cells,0.74,5366,inactive
TM4SF20,0.45,migration z between -2 and 2; enough cells,1,6184,inactive
ZKSCAN1,-0.22,migration z between -2 and 2; enough cells,0.82,5218,inactive
FBXO24,-1.46,migration z between -2 and 2; enough cells,0.52,5417,inactive
FGF17,-0.16,migration z between -2 and 2; enough cells,0.78,5802,inactive
HLA-DQB1,-0.21,migration z between -2 and 2; enough cells,0.76,5432,inactive
TRAP1,0.99,migration z between -2 and 2; enough cells,1,5333,inactive
ANXA10,-1.1,migration z between -2 and 2; enough cells,0.6,5425,inactive
DEFB107A,-1.21,migration z between -2 and 2; enough cells,0.57,5492,inactive
NELL1,0.34,migration z between -2 and 2; enough cells,0.87,7034,inactive
L3MBTL1,-0.2,migration z between -2 and 2; enough cells,0.83,5686,inactive
PASK,1.64,migration z between -2 and 2; enough cells,1.12,4532,inactive
CHD2,0.36,migration z between -2 and 2; enough cells,0.88,5580,inactive
RPS7,-2.62,under 3300 nuclei; migration not judged,0.22,3234,inactive
ACE,-0.54,migration z between -2 and 2; enough cells,0.7,5612,inactive
CD99L2,1.71,migration z between -2 and 2; enough cells,1.33,4739,inactive
SFMBT2,-0.04,migration z between -2 and 2; enough cells,0.88,5886,inactive
CDC16,0.42,migration z between -2 and 2; enough cells,1,5820,inactive
ANP32A,1.7,migration z between -2 and 2; enough cells,1.33,5044,inactive
ZSCAN10,0.7,migration z between -2 and 2; enough cells,1.06,5416,inactive
EHD3,1.56,migration z between -2 and 2; enough cells,1.29,5112,inactive
MPP7,-0.38,migration z between -2 and 2; enough cells,0.73,5733,inactive
COA7,1.78,migration z between -2 and 2; enough cells,1.34,6230,inactive
CEP68,0.96,migration z between -2 and 2; enough cells,1.14,5029,inactive
HSPB6,0.64,migration z between -2 and 2; enough cells,1.05,5616,inactive
SIRPA,-1.4,migration z between -2 and 2; enough cells,0.53,4178,inactive
FNDC11,-1.02,migration z between -2 and 2; enough cells,0.62,5838,inactive
B3GNT9,-0.34,migration z between -2 and 2; enough cells,0.8,5770,inactive
SCG2,-0.4,migration z between -2 and 2; enough cells,0.78,6168,inactive
ERC1,-1.29,migration z between -2 and 2; enough cells,0.55,4845,inactive
FBXW5,-1.35,migration z between -2 and 2; enough cells,0.55,5004,inactive
